Results deposited as PubChem BioAssay AID504793 (Drosophila RNAi Screening Center, 2011)
The deposit covers about 23,000 reagents; shown is a random part of those with a known target gene and a result. In the full data, 62 (0.27%) got an active call. 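Calls come from follow-up tests whose scores are not deposited, so confirmed genes may have low counts here; counts are not normalised per plate.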 The raw values are shown without normalisation. The numbers tell different reagents against one gene apart. A plus sign joins genes that one reagent is predicted to hit.

Aim: 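Knock-downs allowing continued mitosis even though DNA is damaged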 (primary screen)
Cells: Drosophila S2R+ cells
Reagents: long dsRNA against Drosophila genes, about 0.25 µg dsRNA per well
Timing: 4 days of dsRNA, then 4 hours of drug before read-out
Treatment: doxorubicin 0.5 µM for 4 hours to cause double-strand breaks, in cells also given a low, harmless dose of dsRNA against nbs to sensitise the assay
Read-out: 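Mitotic index as the number of phospho-histone H3-positive cells in each well following doxorubicin, given as raw counts without normalisation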
Direction: mitotic cells: higher = more cells in mitosis, weaker G2 arrest
Active means: 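a call needs confirmation in secondary tests, with other dsRNAs and a check of mitotic timing without damage, not just a high primary count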
Calls: active = confirmed in follow-up tests; inactive = not confirmed

Gene,reagent,"mitotic cells, replicate 1",call
CG12640,1,10,inactive
CG12640,2,6,inactive
CG31729,1,3,inactive
CG31729,2,5,inactive
CG31729,3,2,inactive
CG33169,1,4,inactive
CG33169,2,9,inactive
CG11635 + spaw,1,4,inactive
CG14431,1,12,inactive
CG14431,2,3,inactive
CG10472,1,3,inactive
CG10472,2,7,inactive
CG15047,1,15,inactive
CG15047,2,6,inactive
CG15047,3,3,inactive
Sem1,1,7,inactive
Sem1,2,,inactive
CG8012,1,2,inactive
Or63a,1,4,inactive
grsm,1,4,inactive
grsm,2,6,inactive
PIG-C,1,10,inactive
CG34277 + CG31542,1,12,inactive
CG34277 + CG31542,2,3,inactive
CG4213,1,4,inactive
CG9522,1,8,inactive
AstA,1,11,inactive
CG13506,1,3,inactive
CG12155,1,16,inactive
tow,1,13,inactive
tow,2,5,inactive
Ube4A,1,4,inactive
CG31459,1,5,inactive
CG30047,1,8,inactive
CG14411,1,15,inactive
CG14411,2,6,inactive
Trm1,1,7,inactive
CG12129,1,2,inactive
CG6296,1,4,inactive
Spps,1,6,inactive
CG16964,1,6,inactive
CG16964,2,6,inactive
CG12620,1,4,inactive
CG12620,2,2,inactive
SLIRP1 + anox,1,9,inactive
mRpS18A,1,9,inactive
CG32713,1,11,inactive

6 neighbouring records already listed, quoted:
Gene,reagent,"mitotic cells, replicate 1",call
CG10472,1,3,inactive
CG10472,2,7,inactive
CG15047,1,15,inactive
CG15047,2,6,inactive
CG15047,3,3,inactive
Sem1,1,7,inactive

Additional entries follow:
Gene,reagent,"mitotic cells, replicate 1",call
Smg5,1,3,inactive
Smg5,2,5,inactive
GluRIA,1,9,inactive
Ubr3,1,6,inactive
Ubr3,2,8,inactive
Ubr3,3,6,inactive
Ubr3,4,5,inactive
rn,1,9,inactive
rn,2,12,inactive
rn,3,7,inactive
rn,4,17,inactive
rn,5,7,inactive
rn,6,6,inactive
Muc68Ca,1,7,inactive
Muc68Ca,2,2,inactive
CG6443,1,2,inactive
CG6443,2,4,inactive
prage,1,12,inactive
prage,2,18,inactive
prage,3,13,inactive
FMRFaR,1,4,inactive
zfh1,1,8,inactive
zfh1,2,6,inactive
C15,1,4,inactive
CG32107,1,39,inactive
Arf1,1,7,inactive
Cep89,1,5,inactive
Cep89,2,7,inactive
Pi3K21B,1,6,inactive
CG13226,1,10,inactive
Nepl11,1,17,inactive
RpL22,1,14,inactive
RpL22,2,16,inactive
CG15213,1,6,inactive
RpS27A,1,2,inactive
RpS27A,2,8,inactive
Cyp6d4,1,10,inactive
Cyp6d4,2,9,inactive
EMC2B + EMC2A,1,2,inactive
Shal,1,9,inactive
Shal,2,4,inactive
CG8303,1,7,inactive
Bx42,1,5,inactive
Bx42,2,4,inactive
barc,1,5,inactive
CG15098,1,10,inactive
CG15098,2,7,inactive
Mgat4b,1,6,inactive
Mgat4b,2,10,inactive
CG15599,1,6,inactive
Sardh,1,4,inactive
AMPdeam,1,6,inactive
AMPdeam,2,6,inactive
AMPdeam,3,7,inactive
Ag5r2,1,5,inactive
CG13631,1,8,inactive
CG13631,2,6,inactive
CG3436,1,5,inactive
CG3732,1,5,inactive
CG3732,2,6,inactive
CG14502,1,2,inactive
CG17780,1,17,inactive
Elp4,1,10,inactive
